Drug screen on melanoma cell lines: apoptosis marker

Compounds and concentrations:
A-769662, 10000 nM: N#Cc1c(O)c2c(-c3ccc(-c4ccccc4O)cc3)csc2[nH]c1=O
BI-78D3, 1000 nM: O=c1[nH]nc(Sc2ncc([N+](=O)[O-])s2)n1-c1ccc2c(c1)OCCO2
nutlin-3, 500 nM: COc1ccc(C2=N[C@@H](c3ccc(Cl)cc3)[C@@H](c3ccc(Cl)cc3)N2C(=O)N2CCNC(=O)C2)c(OC(C)C)c1
decitabine, 500 nM: Nc1ncn([C@H]2C[C@H](O)[C@@H](CO)O2)c(=O)n1
lestaurtinib, 20 nM: C[C@]12O[C@H](C[C@]1(O)CO)n1c3ccccc3c3c4c(c5c6ccccc6n2c5c31)CNC4=O
NVP-TAE684, 400 nM: COc1cc(N2CCC(N3CCN(C)CC3)CC2)ccc1Nc1ncc(Cl)c(Nc2ccccc2S(=O)(=O)C(C)C)n1
ENMD-2076, 200 nM: Cc1cc(Nc2cc(N3CCN(C)CC3)nc(/C=C/c3ccccc3)n2)n[nH]1
docetaxel, 0.5 nM: CC(=O)O[C@@]12CO[C@@H]1C[C@H](O)[C@@]1(C)C(=O)[C@H](O)C3=C(C)[C@@H](OC(=O)[C@H](O)[C@@H](NC(=O)OC(C)(C)C)c4ccccc4)C[C@@](O)([C@@H](OC(=O)c4ccccc4)[C@H]21)C3(C)C
RKI-983, 2000 nM: C[C@@H](N)c1ccc(C(=O)Nc2ccnc3[nH]ccc23)cc1
OSU-03012, 5000 nM: NCC(=O)Nc1ccc(-n2nc(C(F)(F)F)cc2-c2ccc3c(ccc4ccccc43)c2)cc1

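Human melanoma cells were exposed to a pair of drugs for 72 h in 1,536-well plates and read by automated microscopy after fixing and staining. The read-out is the fraction of cleaved-PARP-positive nuclei, in % of that fraction in the DMSO control; 200 means twice the control level of this apoptosis marker. Every drug was used at one fixed concentration, the higher of two screened. No replicate spread is given; individual values may be noisy. The marker varies much from line to line, for technical or biological reasons.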 Only some of the drugs and lines screened are listed, without regard to their results. An entry leaves out what has no value listed here.

Results for OSU-03012 and ENMD-2076 are G-361: 67.0.
Results for docetaxel and OSU-03012 are G-361: 889; MZ2-MEL: 630.
Results for OSU-03012 and lestaurtinib are G-361: 69.7; MZ2-MEL: 47.1.
Results for lestaurtinib and NVP-TAE684 are G-361: 239; MZ2-MEL: 101.
Results for docetaxel and A-769662 are G-361: 1260; MZ2-MEL: 366.
Results for lestaurtinib and RKI-983 are G-361: 150; MZ2-MEL: 183.
Results for BI-78D3 and ENMD-2076 are G-361: 84.6; MZ2-MEL: 143.
Results for decitabine and lestaurtinib are G-361: 121; MZ2-MEL: 117.
Results for NVP-TAE684 and nutlin-3 are G-361: 248; MZ2-MEL: 116.
Results for docetaxel and BI-78D3 are G-361: 1910; MZ2-MEL: 694.
Results for A-769662 and NVP-TAE684 are G-361: 232; MZ2-MEL: 78.0.
Results for BI-78D3 and A-769662 are G-361: 61.9; MZ2-MEL: 43.7.
Results for docetaxel and lestaurtinib are G-361: 1960; MZ2-MEL: 1070.
Results for nutlin-3 and lestaurtinib are G-361: 110; MZ2-MEL: 325.
Results for ENMD-2076 and A-769662 are G-361: 43.4; MZ2-MEL: 66.4.
Results for RKI-983 and ENMD-2076 are G-361: 114; MZ2-MEL: 307.
Results for OSU-03012 and RKI-983 are G-361: 386; MZ2-MEL: 427.
Results for A-769662 and lestaurtinib are G-361: 117; MZ2-MEL: 54.0.
Results for docetaxel and RKI-983 are G-361: 913; MZ2-MEL: 1500.
Results for nutlin-3 and ENMD-2076 are G-361: 218; MZ2-MEL: 127.
Results for A-769662 and decitabine are G-361: 132; MZ2-MEL: 68.9.
Results for decitabine and NVP-TAE684 are G-361: 137; MZ2-MEL: 140.
Results for BI-78D3 and decitabine are G-361: 154; MZ2-MEL: 151.
Results for ENMD-2076 and decitabine are G-361: 98.9; MZ2-MEL: 231.
Results for OSU-03012 and A-769662 are G-361: 99.9; MZ2-MEL: 62.4.
Results for BI-78D3 and OSU-03012 are G-361: 92.9; MZ2-MEL: 91.5.
Results for NVP-TAE684 and ENMD-2076 are G-361: 186; MZ2-MEL: 195.
Results for RKI-983 and NVP-TAE684 are G-361: 136; MZ2-MEL: 290.
Results for NVP-TAE684 and BI-78D3 are G-361: 85.9; MZ2-MEL: 110.
Results for A-769662 and nutlin-3 are G-361: 99.1; MZ2-MEL: 143.
Results for docetaxel and nutlin-3 are G-361: 821; MZ2-MEL: 499.
Results for BI-78D3 and RKI-983 are G-361: 210; MZ2-MEL: 410.
Results for docetaxel and NVP-TAE684 are G-361: 198; MZ2-MEL: 728.
Results for decitabine and RKI-983 are G-361: 178; MZ2-MEL: 666.
Results for RKI-983 and A-769662 are G-361: 241; MZ2-MEL: 383.
Results for nutlin-3 and decitabine are G-361: 133; MZ2-MEL: 153.
Results for RKI-983 and nutlin-3 are G-361: 331; MZ2-MEL: 461.

Values as published with doi:10.1371/journal.pone.0140310, rounded.